Laboratory results published in US12018081B1, “Photoconjugation reactions for modification of specific proteins on live cells” (The Regents of the University of Colorado, a body, priority 2019, dated 2024).
At least one read-out could not be matched to a standard name with certainty.

Experiment: Affibody-enzyme kinetic activity assay with cytosine (UV-Vis)
Format: biochemical
Conditions: 50 nM enzyme, cytosine 100-250 μM, 50 mM Tris-HCl pH 7.5
Description: Affibody-enzyme Kinetic Activity Assays with Cytosine: The enzymatic assay for N23-CodA, WT-CodA, and CodA were performed by varying substrate concentration and measuring the absorbance using a UV-VIS spectrophotometer (Agilent Technologies, Cary Series 100). A stock of 10 mM cytosine was prepared in 50 mM Tris-HCl at pH 7.5. Varying concentrations (250, 200, 150 and 100 μM) of cytosine solution were prepared from the stock and mixed with 50 nM of the enzyme and enzyme-affibodies. The reaction was run for 15 min with OD267 (cytosine) and OD260 (uracil) readings taken every 12 s. The concentration of cytosine was calculated for each time point and the kinetic parameters KM and kcat were calculated using the methods of initial rates and double reciprocal plots.

B1: CodA: Cytosine deaminase, bacterial enzyme of E. coli, alone without affibody (protein, UniProt P25524 2-427, looked up)
Cytosine deaminase: SNNALQTIINARLPGEEGLWQIHLQDGKISAIDAQSGVMPITENSLDAEQGLVIPPFVEPHIHLDTTQTAGQPNWNQSGTLFEGIERWAERKALLTHDDVKQRAWQTLKWQIANGIQHVRTHVDVSDATLTALKAMLEVKQEVAPWIDLQIVAFPQEGILSYPNGEALLEEALRLGADVVGAIPHFEFTREYGVESLHKTFALAQKYDRLIDVHCDEIDDEQSRFVETVAALAHHEGMGARVTASHTTAMHSYNGAYTSRLFRLLKMSGINFVANPLVNIHLQGRFDTYPKRRGITRVKEMLESGINVCFGHDDVFDPWYPLGTANMLQVLHMGLHVCQLMGYGQINDGLNLITHHSARTLNLQDYGIAAGNSANLIILPAENGFDALRRQVPVRYSVRGGKVIASTQPAQTTVYLEQPEAIDYKR
- kcat/Km: 21.23 mM⁻¹ s⁻¹
